Where two headings read alike, the source gives them in different places. These are yes or no findings as the source states them, for the method shown. In cells and extracts the contact can be indirect. Here binding means that the protein was enriched with, or labelled near, the bait; the list need not be complete. No binding means not detected with the bait.
T1: PsbO-APEX2 (Synechocystis sp. PCC6803) (UniProt P10549)
T1 sequence: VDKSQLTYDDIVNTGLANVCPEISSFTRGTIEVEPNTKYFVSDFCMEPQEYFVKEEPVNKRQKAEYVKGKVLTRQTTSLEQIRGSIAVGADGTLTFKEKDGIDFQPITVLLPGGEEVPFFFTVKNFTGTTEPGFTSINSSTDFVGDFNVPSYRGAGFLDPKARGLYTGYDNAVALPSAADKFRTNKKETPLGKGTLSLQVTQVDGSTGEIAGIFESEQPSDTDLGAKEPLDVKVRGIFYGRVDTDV

Chains of the proteins cited; added tags and fusions are not shown.
UniProt P29255: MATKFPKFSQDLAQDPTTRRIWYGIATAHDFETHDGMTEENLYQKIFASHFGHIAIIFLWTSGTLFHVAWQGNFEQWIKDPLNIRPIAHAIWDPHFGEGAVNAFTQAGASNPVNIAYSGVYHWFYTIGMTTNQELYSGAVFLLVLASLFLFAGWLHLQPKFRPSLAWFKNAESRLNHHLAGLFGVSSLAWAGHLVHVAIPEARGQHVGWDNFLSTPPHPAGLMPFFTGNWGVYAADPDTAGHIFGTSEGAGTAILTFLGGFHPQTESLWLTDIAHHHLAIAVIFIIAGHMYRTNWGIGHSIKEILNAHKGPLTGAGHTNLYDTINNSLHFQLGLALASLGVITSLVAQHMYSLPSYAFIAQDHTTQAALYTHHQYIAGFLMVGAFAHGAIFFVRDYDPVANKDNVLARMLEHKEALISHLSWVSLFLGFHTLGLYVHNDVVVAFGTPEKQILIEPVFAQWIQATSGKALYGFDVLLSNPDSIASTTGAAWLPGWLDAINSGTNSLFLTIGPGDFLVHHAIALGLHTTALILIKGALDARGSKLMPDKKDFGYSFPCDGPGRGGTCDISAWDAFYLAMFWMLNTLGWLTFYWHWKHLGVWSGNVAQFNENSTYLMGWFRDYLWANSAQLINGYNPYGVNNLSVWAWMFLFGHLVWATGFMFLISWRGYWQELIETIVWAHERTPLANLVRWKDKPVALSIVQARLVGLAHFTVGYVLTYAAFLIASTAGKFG
UniProt P29254: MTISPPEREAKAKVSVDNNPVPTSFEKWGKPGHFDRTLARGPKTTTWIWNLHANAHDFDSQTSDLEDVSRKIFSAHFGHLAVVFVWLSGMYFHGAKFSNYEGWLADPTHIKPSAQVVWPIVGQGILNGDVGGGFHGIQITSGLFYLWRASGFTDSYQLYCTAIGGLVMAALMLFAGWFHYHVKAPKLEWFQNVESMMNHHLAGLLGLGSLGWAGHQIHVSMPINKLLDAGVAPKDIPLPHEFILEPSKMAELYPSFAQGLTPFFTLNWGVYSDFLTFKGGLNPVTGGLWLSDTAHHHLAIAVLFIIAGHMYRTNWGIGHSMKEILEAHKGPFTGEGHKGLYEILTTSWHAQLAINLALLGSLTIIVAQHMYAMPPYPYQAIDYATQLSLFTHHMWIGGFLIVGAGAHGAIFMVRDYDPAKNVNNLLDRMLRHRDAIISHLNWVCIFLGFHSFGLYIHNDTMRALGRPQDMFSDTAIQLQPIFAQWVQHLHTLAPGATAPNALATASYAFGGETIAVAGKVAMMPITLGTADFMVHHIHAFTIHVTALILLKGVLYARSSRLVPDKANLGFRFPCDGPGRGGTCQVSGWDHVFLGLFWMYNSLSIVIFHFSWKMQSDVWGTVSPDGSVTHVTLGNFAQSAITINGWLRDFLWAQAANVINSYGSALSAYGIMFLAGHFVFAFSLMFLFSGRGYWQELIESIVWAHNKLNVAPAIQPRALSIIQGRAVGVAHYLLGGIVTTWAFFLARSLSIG


What was measured:
[1] = target: T1, PsbO-APEX2 (Synechocystis sp. PCC6803); experiment: proximity labelling; PsbO-APEX2 knock-in Synechocystis cells, 2 mM biotin phenol 10 min at 30 °C, 2 mM H2O2 1 min; lysate denatured (methanol/chloroform, 0.1% SDS), streptavidin-agarose enrichment, on-bead trypsin digestion, label-free LC-MS/MS; hits filtered against three negative controls (no BP, WT, Zwf-APEX2), p < 0.05 and fold-change of two
[2] = target: T1, PsbO-APEX2 (Synechocystis sp. PCC6803); experiment: as above; remark: listed apart in the source

Molecule | binding [1] | binding [2]
PsaB (from UniProt P29255 1-731) | no binding | 
PsaA (from UniProt P29254 1-751) | no binding | 
FtsH1 (enzyme, UniProt P73179 1-665) MSHRPRSDRHSFSSPSRFWHRLGMGLLVAGTLALPVSTLAQEGGEGAQPKASPSPIQSPNSSNGEATPRSFFNSGSPRSAEPKMNYGQLIDAIKANQVAKVEVDTNRRQAIVTLKDAPPGSKPQTVQLLDNNPELLNLLRSRSETIDLDINRTPDNSALYGLLTNLLVVAILIGLVVMVVRRSANASGQAMSFGKSKARFQMEAKTGVGFDDVAGIDEAKEELQEVVTFLKQPEKFTAIGAKIPRGVLLIGPPGTGKTLLAKAIAGEAGVPFFSISGSEFVEMFVGVGASRVRDLFKKAKENAPCLVFIDEIDAVGRQRGVGYGGGNDEREQTLNQLLTEMDGFEGNSGIIVIAATNRPDVLDLALLRPGRFDRQVTVDYPDVQGRELILAIHAQNKKLHEEVQLAAIARRTPGFTGADLANVLNEAAIFTARRRKEAITMAEVNDAIDRVVAGMEGTPLVDSKSKRLIAYHEVGHALIGTLCPGHDPVEKVTLIPRGQAQGLTWFTPDEDQSLMTRNQMIARIAGLLGGRVAEEVIFGDDEVTTGAGNDIEKITYLARQMVTKLGMSSLGLVALEEEGDRNFSGGDWGKRSEYSEDIAARIDREIQAIVTAAHQRATRIIEENRNLMDLLVDALIDQETIEGEHFRQLVESYQQSQKQPALAGK |  | no binding
PsaF (protein, UniProt P29256 24-165) DDFANLTPCSENPAYLAKSKNFLNTTNDPNSGKIRAERYASALCGPEGYPHLIVDGRFTHAGDFLIPSILFLYIAGWIGWVGRSYLIEIRESKNPEMQEVVINVPLAIKKMLGGFLWPLAAVGEYTSGKLVMKDSEIPTSPR |  | no binding
AtpF (protein, UniProt P27181 1-179) MLNTLFILAAEAHEAGEGGFGINLDFLEANLFNLAILLGIIIYYAPKTLGKILGDRRQKIADAIEEAETRQRKSAQILAEEEKKLAQAKAEAARIVQEAGQRAEVAKQEIATQTEADLRRMQEAAAQDLGAEQERVIAELKRRIAEQAVAKAEADLRDRLNEDTQDRLIERSIAQLGGR |  | no binding
AtpG (protein, UniProt P27183 1-143) MFDFDATLPLMALQFVVLAFLLNAIFYKPMNKVLDERADYIRTNEEDARERLAKAKAITQEYEQQITDARRQSQAVIADAQAEARRLAAEKIAEAQRESQRQKETAAQEIEAQRQSALSSLEQEVAALSNQILHKLLGPELIK |  | no binding

From publication PMC9764255
